Measurements from PubChem BioAssay AID624297 (National Center for Advancing Translational Sciences (NCATS), 2012).
About 6,200 (1.8%) of roughly 340,000 compounds were called active. The shares of active, inactive and inconclusive entries below differ from those in the screen. Calls come from the whole dose curve; as a rule, active = well fitted activation curve with a large enough effect; inconclusive = small, poorly fitted or top-dose-only effect; inactive = no such curve, though single readings can be large or run the other way. Potencies of inconclusive entries are doubtful fits and often do not repeat.

Assay: A quantitative high throughput screen for small molecules that induce DNA re-replication in SW480 colon adenocarcinoma cells. Note: nearly all actives have a fitted effect of over 55% in size.
Settings: Hoechst DNA content imaging, 48 h; series mostly up to 46.1 µM
How it was run: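 DNA re-replication was detected as more nuclei of elevated Hoechst intensity after 48 hr exposure to compound (23 nL pinned per well of 250 cells).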
Potency is the fitted concentration of half-maximal effect.

Structure (SMILES)	Potency
O=[N+]([O-])c1ccc(N/N=C\c2ccccc2OCc2ccccc2)cc1	inconclusive: 5.17 µM [activator, full curve, poor fit]
Cc1ccc(-c2cc(-c3ccccc3)nc(N)c2C#N)o1	inconclusive: 14.6 µM [activator, single point]
C=CCn1c(O)c(N=NC(=S)Nc2ccccc2C)c2cc(S(=O)(=O)N3CCOCC3)ccc21	inconclusive: 29.1 µM [activator, single point]
Cc1ccc(F)c([C@H]2[C@@H]3C=CCC[C@@]3(C)C(=O)N2Cc2ccccc2)c1	inactive
O=C(/C=C/c1ccccc1)Oc1cccc2cccnc12	inconclusive: 29.1 µM [activator, single point]
O=C(Nc1ccccc1NC(=O)NC1CCCCC1)NC1CCCCC1	inconclusive: 4.11 µM [activator, full curve]
Cc1cc(=O)n(-c2ccccc2)n1C	inactive
Cc1c(CCC(=O)NCCC(=O)O)c(=O)oc2cc3occ(-c4ccccc4)c3cc12	inconclusive: 16.4 µM [activator, single point]
COC(=O)C1=CN(c2cccc(C(F)(F)F)c2)C=C(C(=O)OC)C1c1ccc(O)c(OC)c1	inconclusive: 20.6 µM [activator, single point]
COc1cc2cc(Oc3ccc4ccc(=O)oc4c3)c(=O)oc2cc1OC(=O)/C=C/c1ccccc1	inconclusive: 0.461 µM [activator, partial curve]
Nc1ncnc(Oc2cccc3cccnc23)c1[N+](=O)[O-]	inconclusive: 2.59 µM [activator, partial curve, poor fit]
CN(C)CCCN(C(=O)c1ccc(C(=O)c2ccccc2)cc1)c1nc2c(F)cccc2s1	inconclusive: 18.4 µM [activator, single point]
NC(=O)C1CCN(C(=O)CCNS(=O)(=O)c2ccccc2F)CC1	inactive
Cc1cc(C)c(S(=O)(=O)NC2CC(C)(C)NC(C)(C)C2)cc1C	inconclusive: 0.517 µM [activator, single point]
CCOc1ccc(NC(=O)C2C3CCC4C(CCC32)C4(Cl)Cl)cc1 (stereo not drawn)	inconclusive: 0.231 µM [activator, full curve, poor fit]
CCOc1ccccc1C(=O)Nc1ccc2nc(N3CCN(c4ncccn4)CC3)cc(C)c2c1	inconclusive: 20.6 µM [activator, single point]
CNC(=O)/C(C#N)=C/c1c(N2CCCCCC2)nc2c(C)cccn2c1=O	inactive
CCOC(=O)c1c(C)[nH]c(C)c1C(=O)CSc1nnc(N)s1	inconclusive: 29.1 µM [activator, single point]

A run of entries of the results above, for reference:
Structure (SMILES)	Potency
C=CCn1c(O)c(N=NC(=S)Nc2ccccc2C)c2cc(S(=O)(=O)N3CCOCC3)ccc21	inconclusive: 29.1 µM [activator, single point]
Cc1ccc(F)c([C@H]2[C@@H]3C=CCC[C@@]3(C)C(=O)N2Cc2ccccc2)c1	inactive
O=C(/C=C/c1ccccc1)Oc1cccc2cccnc12	inconclusive: 29.1 µM [activator, single point]
O=C(Nc1ccccc1NC(=O)NC1CCCCC1)NC1CCCCC1	inconclusive: 4.11 µM [activator, full curve]
